PubChem BioAssay AID652272 | Drosophila RNAi Screening Center, 2013
Aim: 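Genes whose knock-down decreases or increases Hedgehog reporter output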 (primary screen). Cell system: Drosophila clone 8 (Cl8) cells. Knock-down reagent: long dsRNA against Drosophila genes. Read-out: 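Firefly light from a Hedgehog-responsive ptc promoter reporter and Renilla reference light, both read on a plate reader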. Scale: firefly Hh reporter signal: higher = more ptc reporter light; Renilla reference signal: higher = more Renilla control light. Rule for the call: 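Hit when the z-score averaged over two replicates is under -2 or over +3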. Meaning of the calls: active = hit: reporter lowered or raised; inactive = not a hit.
The deposit covers about 21,000 reagents; shown is an unselected part of those that have a named target and a result. Over the whole deposit, 503 (2.4%) got an active call. 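Raw plate light values, not normalised; calls rest on replicate z-scores that were not deposited; hits include reporter decreases as well as increases.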 A plus sign joins genes that one reagent is predicted to hit. No sequences are given here. Not stated in the record: the amount of reagent, the time to read-out.

{"target gene":"Vps15 (Vacuolar protein sorting 15)","amplicon":"DRSC16553","firefly Hh reporter signal, replicate 1":1.01e5,"firefly Hh reporter signal, replicate 2":80317,"Renilla reference signal, replicate 1":4477,"Renilla reference signal, replicate 2":3845,"Call":"inactive"}
{"target gene":"Rbsn-5 (Rabenosyn-5)","amplicon":"DRSC03094","firefly Hh reporter signal, replicate 1":95517,"firefly Hh reporter signal, replicate 2":54985,"Renilla reference signal, replicate 1":3898,"Renilla reference signal, replicate 2":2611,"Call":"inactive"}
{"target gene":"CG10081","amplicon":"DRSC05962","firefly Hh reporter signal, replicate 1":90935,"firefly Hh reporter signal, replicate 2":55802,"Renilla reference signal, replicate 1":2483,"Renilla reference signal, replicate 2":4257,"Call":"inactive"}
{"target gene":"CG42694","amplicon":"DRSC03955","firefly Hh reporter signal, replicate 1":1.06e5,"firefly Hh reporter signal, replicate 2":2.64e5,"Renilla reference signal, replicate 1":2725,"Renilla reference signal, replicate 2":11221,"Call":"inactive"}
{"target gene":"CG17821","amplicon":"DRSC06696","firefly Hh reporter signal, replicate 1":70769,"firefly Hh reporter signal, replicate 2":46412,"Renilla reference signal, replicate 1":1955,"Renilla reference signal, replicate 2":3706,"Call":"inactive"}
{"target gene":"l(2)37Bb (lethal (2) 37Bb)","amplicon":"DRSC02088","firefly Hh reporter signal, replicate 1":1.08e5,"firefly Hh reporter signal, replicate 2":6.26e5,"firefly Hh reporter signal, replicate 3":64393,"Renilla reference signal, replicate 1":2370,"Renilla reference signal, replicate 2":36396,"Call":"inactive"}
{"target gene":"ft (fat)","amplicon":"DRSC00819","firefly Hh reporter signal, replicate 1":1.19e5,"firefly Hh reporter signal, replicate 2":1.03e5,"Renilla reference signal, replicate 1":5387,"Renilla reference signal, replicate 2":3938,"Call":"inactive"}
{"target gene":"AMPdeam (AMP deaminase)","amplicon":"DRSC18996","firefly Hh reporter signal, replicate 1":8.93e5,"firefly Hh reporter signal, replicate 2":2.88e5,"Renilla reference signal, replicate 1":50672,"Renilla reference signal, replicate 2":8123,"Call":"inactive"}
{"target gene":"AMPdeam (AMP deaminase)","amplicon":"DRSC19366","firefly Hh reporter signal, replicate 1":86323,"firefly Hh reporter signal, replicate 2":70448,"Renilla reference signal, replicate 1":1922,"Renilla reference signal, replicate 2":1590,"Call":"inactive"}
{"target gene":"AMPdeam (AMP deaminase)","amplicon":"DRSC19368","firefly Hh reporter signal, replicate 1":1.46e5,"firefly Hh reporter signal, replicate 2":2.64e5,"Renilla reference signal, replicate 1":5073,"Renilla reference signal, replicate 2":12205,"Call":"inactive"}
{"target gene":"AMPdeam (AMP deaminase)","amplicon":"DRSC19727","firefly Hh reporter signal, replicate 1":1.14e5,"firefly Hh reporter signal, replicate 2":2.38e5,"Renilla reference signal, replicate 1":2896,"Renilla reference signal, replicate 2":10914,"Call":"inactive"}
{"target gene":"PolrMT (RNA polymerase mitochondrial)","amplicon":"DRSC00660","firefly Hh reporter signal, replicate 1":78810,"firefly Hh reporter signal, replicate 2":65568,"Renilla reference signal, replicate 1":2851,"Renilla reference signal, replicate 2":2773,"Call":"inactive"}
{"target gene":"CG1504","amplicon":"DRSC20513","firefly Hh reporter signal, replicate 1":42125,"firefly Hh reporter signal, replicate 2":82936,"Renilla reference signal, replicate 1":1148,"Renilla reference signal, replicate 2":4902,"Call":"inactive"}
{"target gene":"CG7906","amplicon":"DRSC10928","firefly Hh reporter signal, replicate 1":1.27e5,"firefly Hh reporter signal, replicate 2":84624,"Renilla reference signal, replicate 1":4932,"Renilla reference signal, replicate 2":3044,"Call":"inactive"}
{"target gene":"Prosalpha5 (Proteasome alpha5 subunit)","amplicon":"DRSC07514","firefly Hh reporter signal, replicate 1":31946,"firefly Hh reporter signal, replicate 2":30519,"Renilla reference signal, replicate 1":2838,"Renilla reference signal, replicate 2":2099,"Call":"active"}
{"target gene":"Ocho","amplicon":"DRSC11239","firefly Hh reporter signal, replicate 1":1.06e5,"Renilla reference signal, replicate 1":1808,"Renilla reference signal, replicate 2":3293,"Call":"inactive"}
{"target gene":"CG40485","amplicon":"DRSC20624","firefly Hh reporter signal, replicate 1":62376,"firefly Hh reporter signal, replicate 2":1.75e5,"Renilla reference signal, replicate 1":2070,"Renilla reference signal, replicate 2":7962,"Call":"inactive"}
{"target gene":"MED27 (Mediator complex subunit 27)","amplicon":"DRSC12205","firefly Hh reporter signal, replicate 1":66755,"firefly Hh reporter signal, replicate 2":1.12e5,"Renilla reference signal, replicate 1":1952,"Renilla reference signal, replicate 2":2885,"Call":"inactive"}
{"target gene":"Gale (UDP-galactose 4'-epimerase)","amplicon":"DRSC08234","firefly Hh reporter signal, replicate 1":1.36e5,"firefly Hh reporter signal, replicate 2":1.10e5,"Renilla reference signal, replicate 1":5981,"Renilla reference signal, replicate 2":4533,"Call":"inactive"}
{"target gene":"CG11594","amplicon":"DRSC08207","firefly Hh reporter signal, replicate 1":1.10e5,"firefly Hh reporter signal, replicate 2":76976,"Renilla reference signal, replicate 1":4872,"Renilla reference signal, replicate 2":3073,"Call":"inactive"}
{"target gene":"Got2 (Glutamate oxaloacetate transaminase 2)","amplicon":"DRSC00643","firefly Hh reporter signal, replicate 1":95780,"firefly Hh reporter signal, replicate 2":83526,"Renilla reference signal, replicate 1":4557,"Renilla reference signal, replicate 2":3624,"Call":"inactive"}
{"target gene":"topi (matotopetli)","amplicon":"DRSC16431","firefly Hh reporter signal, replicate 1":72768,"firefly Hh reporter signal, replicate 2":98119,"Renilla reference signal, replicate 1":1865,"Renilla reference signal, replicate 2":2945,"Call":"inactive"}
{"target gene":"sotv + CG10731","amplicon":"DRSC05930","firefly Hh reporter signal, replicate 1":1.02e5,"firefly Hh reporter signal, replicate 2":41125,"Renilla reference signal, replicate 1":2369,"Renilla reference signal, replicate 2":2608,"Call":"inactive"}
{"target gene":"sotv + CG10731","amplicon":"DRSC05997","firefly Hh reporter signal, replicate 1":61273,"firefly Hh reporter signal, replicate 2":48636,"Renilla reference signal, replicate 1":1591,"Renilla reference signal, replicate 2":3552,"Call":"inactive"}
{"target gene":"CG11052","amplicon":"DRSC14288","firefly Hh reporter signal, replicate 1":1.04e5,"firefly Hh reporter signal, replicate 2":1.46e5,"Renilla reference signal, replicate 1":4604,"Renilla reference signal, replicate 2":4412,"Call":"inactive"}
{"target gene":"CG42650","amplicon":"DRSC12462","firefly Hh reporter signal, replicate 1":1.92e5,"Renilla reference signal, replicate 1":3570,"Call":"inactive"}
{"target gene":"Mvd (Mevalonate diphosphate decarboxylase)","amplicon":"DRSC20096","firefly Hh reporter signal, replicate 1":95763,"firefly Hh reporter signal, replicate 2":64604,"Renilla reference signal, replicate 1":2339,"Renilla reference signal, replicate 2":1604,"Call":"inactive"}

Ordered by “Renilla reference signal, replicate 1” (high to low): some entries from above
{"target gene":"Gale (UDP-galactose 4'-epimerase)","amplicon":"DRSC08234","firefly Hh reporter signal, replicate 1":1.36e5,"firefly Hh reporter signal, replicate 2":1.10e5,"Renilla reference signal, replicate 1":5981,"Renilla reference signal, replicate 2":4533,"Call":"inactive"}
{"target gene":"CG11594","amplicon":"DRSC08207","firefly Hh reporter signal, replicate 1":1.10e5,"firefly Hh reporter signal, replicate 2":76976,"Renilla reference signal, replicate 1":4872,"Renilla reference signal, replicate 2":3073,"Call":"inactive"}
{"target gene":"Got2 (Glutamate oxaloacetate transaminase 2)","amplicon":"DRSC00643","firefly Hh reporter signal, replicate 1":95780,"firefly Hh reporter signal, replicate 2":83526,"Renilla reference signal, replicate 1":4557,"Renilla reference signal, replicate 2":3624,"Call":"inactive"}
